Earlier results as cited in US20240225985A1, “BRIGHTENING COMPOSITIONS AND METHODS OF USE” (Alastin Skincare, Inc., priority 2021, published 2024).
For at least one compound, name, drawing or mass did not settle the structure.

Target: T1, tyrosinase (Homo sapiens, UniProt P14679)
T1 sequence (P14679 19-529): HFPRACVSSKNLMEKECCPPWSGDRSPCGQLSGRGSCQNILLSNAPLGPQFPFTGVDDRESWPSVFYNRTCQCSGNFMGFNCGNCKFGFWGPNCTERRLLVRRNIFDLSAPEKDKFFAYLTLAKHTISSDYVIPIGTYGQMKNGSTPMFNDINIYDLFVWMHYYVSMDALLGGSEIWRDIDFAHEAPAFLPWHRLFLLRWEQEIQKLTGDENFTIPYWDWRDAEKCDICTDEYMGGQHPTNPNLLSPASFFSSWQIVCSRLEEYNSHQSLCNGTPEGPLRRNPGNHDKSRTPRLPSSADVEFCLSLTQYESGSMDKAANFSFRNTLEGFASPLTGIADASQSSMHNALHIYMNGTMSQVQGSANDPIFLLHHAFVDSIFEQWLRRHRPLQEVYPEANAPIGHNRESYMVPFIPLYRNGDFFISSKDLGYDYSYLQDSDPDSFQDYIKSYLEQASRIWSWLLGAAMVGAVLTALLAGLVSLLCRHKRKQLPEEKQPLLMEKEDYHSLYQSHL
Conditions: background statement, cited from earlier work

Question: Which results are given for `C/C=C1/[C@H](O[C@@H]2O[C@H](CO)[C@@H](O)[C@H](O)[C@H]2O)OC=C(C(=O)OC)[C@H]1CC(=O)OCCc1ccc(O)c(O)c1` [Oleuropein]?
Answer: tyrosinase inhibitory activity (no concentration given): 90%; tyrosinase inhibition type: non-competitive competition
